# Library screen at single concentrations

From ChEMBL document CHEMBL3988442, “University of Dundee, Small-Polar-MMV Screening Library” (2021).

Mtb glucose medium: 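Phenotypic screen: M. tuberculosis growth, glucose 7H9 medium, 3 days; the read-out is not stated. Tested at 500 µM. Higher reads as more growth inhibition (inferred: compounds with an IC50 in retests scored well above the rest). Size under these conditions: about 18,000 compounds, about 1,400 of them at 50% or above in at least one test.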
Mtb cholesterol medium: 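Phenotypic screen: M. tuberculosis growth, cholesterol and DPPC medium, 4 days; the read-out is not stated. Compounds at 500 µM. Higher reads as more growth inhibition (inferred: compounds with an IC50 in retests scored well above the rest). Of about 18,000 compounds tested this way, about 900 (5%) reached 50% or more in at least one test.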

Values are the deposited “Percent Effect”, in %. How 0% and 100% were set is not recorded. Most values in the screen are low, and negative values occur. Compounds were drawn at random from those tested, without regard to their results.

compound,Mtb glucose medium,Mtb cholesterol medium
O=S1(=O)CCC(Nc2cc([C@H]3C[C@@H](O)C3)ncn2)CC1,7.742,10.63
Cc1ccc(C(C)NC(=O)NCCN2CCOCC2)o1 (stereo not shown),11.27,-8.482
CCOC(=O)c1cnn(C)c1,0.8535,0.02516
CC(O)CNCCNCc1ccc(-c2ccccc2)o1 (stereo not shown),60.04,48.27
NC(=O)C1CCN(CCOc2ccccc2F)CC1,17.48,0.6076
CC(C)(C)OC(=O)N[C@@H]1CCCNC1=O,-8.002,-13.56
CC(C)Cc1cc(C(=O)NCC(O)C(F)(F)F)[nH]n1 (stereo not shown),61.14,59.13
c1nc(N2CCNCC2)c2sccc2n1,-3.832,-16.04
CN(C)C(=O)COC(=O)c1ccc2ncsc2c1,49.82,-6.411
NCCCc1cccc(F)c1,92.41,102.9
CC(C)(C)OC(=O)N1C[C@@H](N)[C@H](O)C1,5.876,-1.152
CNC(CO)c1ccccc1 (stereo not shown),-1.956,-9.98
CC(C)NC(=O)c1cccc(OCC(N)=O)c1,-0.4488,-4.535
CCNC(=O)CNc1ccnc2cc(F)ccc12,-2.771,-17.62
Cc1ccc(S(=O)(=O)NC2CC[S+]([O-])CC2)cc1F (stereo not shown),7.856,4.988
COc1ccc(Cl)cc1NC(=O)CN1CCNC(=O)C1,19.1,-9.113
CC(C)CC(NC(=O)CNC(N)=O)c1ncnn1C (stereo not shown),5.435,-0.8233
CC(NC(=O)CSc1nc(=O)[nH]n1C)c1cccs1 (stereo not shown),85.31,95.31
O=c1cc(CN2CCOCC2)nc2sccn12,2.678,-5.995
CCOC(=O)C1CCCN(Cc2cccnc2)C1 (stereo not shown),26.34,15.56
O=C1NCCCC12CCN(C/C=C/c1ccccc1)C2 (stereo not shown),41.02,10.66
OCC1(O)CCCN(Cc2ccc3ccccc3n2)C1 (stereo not shown),-42.59,-103.1
CNCC(=O)Nc1cccc2ccccc12,23.16,12.74
COCCCNc1ccccc1CN1CCOCC1,34.96,26.58
CCC(=O)NC(c1ccccc1OC)c1nccn1C (stereo not shown),-9.827,-15.57
CCN(CCn1cccn1)C(=O)CNC(=O)N(C)C,-4.842,-11.29
Cc1ccsc1C(=O)N(C)CC(=O)NC1CC1,14.66,3.04
CN1C[C@@H](N)C[C@H]1c1nc(C2CCOCC2)n[nH]1,0.6514,-19.75
CNc1ccc(OCCN2CCCC2)cc1,39.96,25.54
CCCc1cc(C(=O)NC(C)c2n[nH]c(=O)[nH]2)cs1 (stereo not shown),24.44,11.22
CNC(=O)NC(=O)CCSc1nnc2n1CCCCC2,15.12,5.627
Cn1ccnc1N1CCN(C(=O)C2=CCCCO2)CC1,7.627,-2.131
CN1CCCC(NC(=O)c2cc3c([nH]c2=O)CCC3)C1 (stereo not shown),6.784,-1.793
O=C(c1ccncc1)N1CCOc2ccccc21,5.309,-17.43
CC1(CNC(=O)c2cnccn2)CCOCC1,30.88,21.08
CC(C)Nc1cccc(C(=O)NC(C)CO)c1 (stereo not shown),1.782,-8.718
CC(C)C(=O)OCC(=O)NC(=O)c1cccn1C,-21.38,-46.74
CCCc1c(C(=O)NCCO)nnn1-c1ccccc1,35.58,31.37
CC(C)c1n[nH]c(C(=O)NCCN2CCOCC2)c1Br,21.39,3.607
Cc1ccc(CNC(C)CCN2CCOCC2)nc1 (stereo not shown),8.884,8.558
CCn1cc(NC(=O)NCCN(C)CCOC)cn1,6.489,14.44
Cc1ccccc1C1(N)CC1,-0.05864,1.798
CCOC(=O)Cn1nnc2ccccc2c1=O,52.11,49.74
CCC(C(=O)Nc1ccc(C)cc1)N(C)C (stereo not shown),3.936,-5.073
CN(C)c1cc(CNC(=O)NC2CCCC2)ccn1,17.26,12.39
CCC(CC)NCCS(=O)(=O)N(C)C,10.67,45.64
N#CC(N)C1CCOCC1 (stereo not shown),1.655,-1.213
c1cc(CC2CCNCC2)[nH]n1,1.63,-7.197
COc1ccc(NC(=O)NC(C)(C)C(C)(C)O)cc1,59.08,41.12
CCN(Cc1noc(C)n1)Cc1cncn1CC,3.73,-1.142
CC1CNCCS(=O)(=O)C1 (stereo not shown),11.63,2.208
Cc1cccc(N(C)CC(O)CN2CCOCC2)n1 (stereo not shown),0.1295,1.406
COCC1CCCCN1Cc1ccc(S(C)(=O)=O)cc1 (stereo not shown),5.903,20.54

For reference, 6 entries once more:

compound	Mtb glucose medium	Mtb cholesterol medium
CC(C)C(=O)OCC(=O)NC(=O)c1cccn1C	-21.38	-46.74
Cc1ccc(CNC(C)CCN2CCOCC2)nc1 (stereo not shown)	8.884	8.558
CC(C)(C)OC(=O)N[C@@H]1CCCNC1=O	-8.002	-13.56
CCOC(=O)Cn1nnc2ccccc2c1=O	52.11	49.74
CC(NC(=O)CSc1nc(=O)[nH]n1C)c1cccs1 (stereo not shown)	85.31	95.31
CCCc1cc(C(=O)NC(C)c2n[nH]c(=O)[nH]2)cs1 (stereo not shown)	24.44	11.22